# Values quoted from earlier work, collected in patent US12116614B2, “Methods for determining antibiotic sensitivity” (priority 2020, dated 2024).
# Some entries share one result that the patent states for a list of compounds. At least one compound was matched to its structure with a doubt left.
# Tested on: established NTHI biofilms
# Settings: concurrent exposure to antiserum against a DNABII protein and antibiotic; cited from earlier work
row,Compound,concentration below the MIC at which biofilms exposed with anti-DNABII antiserum were significantly more sensitive to killing than planktonic counterparts [fold below the MIC]
1,CC1(C)S[C@@H]2[C@H](NC(=O)[C@H](N)c3ccccc3)C(=O)N2[C@H]1C(=O)O [ampicillin],≥ 4
2,C=CC1=C(C(=O)O)N2C(=O)[C@@H](NC(=O)/C(=N\O)c3csc(N)n3)[C@H]2SC1 [cefdinir],≥ 4
